The whole screen tested about 330,000 compounds, of which about 7,700 (2.3%) were called active. The shares of active, inactive and inconclusive entries below differ from those in the screen. The call rests on the fitted dose curve; in most records, active means well fitted inhibition curve with a large enough effect; inconclusive means small, poorly fitted or top-dose-only effect, or effect the other way; inactive means flat fitted curve, though single readings scatter. Potencies beside an inconclusive call are fits to weak or partial responses and may not hold up.
Assay: qHTS screen for small molecules that inhibit ELG1-dependent DNA repair in human embryonic kidney (HEK293T) cells expressing luciferase-tagged ELG1; further: nearly all actives have a fitted effect of over 55% in size
Conditions: HEK293T ELG1-luciferase reporter, luminescence, 16 h, DNA damage induced by 5-fluorouridine; activity change, negative = inhibition: at 46.1 µM (top of the series)
How it was run: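 Quantitative HTS, concentration-response format. 2,000 cells/well co-treated with 5-fluorouridine and compound, 16 hr in 5% CO2 at 37 °C; ONE-Glo luminescence read after 30 min.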
On the % scale 0 is the no-effect control and ±100 the full control effect; potency means the concentration at half of the fitted maximal effect.

SMILES | Potency | activity change, negative = inhibition
COc1ccccc1CN(C)S(=O)(=O)c1cccs1 | inconclusive: 18.3 µM [activator, single point] | –
CSc1ccc(CNC(=O)c2ccc(NC(=O)C3=CSCCO3)cc2)cc1 | inconclusive: 32.6 µM [activator, partial curve, poor fit] | –
COC(=O)c1c(-c2cccs2)csc1NC(=O)c1cccnc1 | inconclusive: 2.59 µM [activator, full curve] | –
CN1CCN(S(=O)(=O)c2cccc(C(=O)Nc3sc4c(c3C(N)=O)CCCC4)c2)CC1 | inconclusive: 18.4 µM [inhibitor, single point] | –
CCOC(=O)[C@@H]1[C@H]2COc3cc(OC)ccc3[C@H]2N2C(=O)N(c3ccc(OC)cc3)C(=O)[C@]12C | inconclusive: 16.4 µM [inhibitor, single point] | –
CC1=C(C(=O)OC2CCCC(C)C2)C(c2ccccc2)NC(=O)N1 (configuration not stated) | inconclusive: 0.0146 µM [inhibitor, full curve, poor fit] | –
CCOc1ccc2nc(NC(=S)N(C)C)sc2c1 | inconclusive: 0.517 µM [activator, full curve] | –
COc1ccc(NC2=C(Cl)C(=O)N(CCc3ccccc3)C2=O)cc1 | inactive | –
O=C(NCc1ccc2c(c1)OCO2)c1n[nH]c(=O)c2ccccc12 | inconclusive: 23.1 µM [activator, single point] | –
COC(=O)c1sc2nc(N)c(C#N)cc2c1N | inconclusive: 23.1 µM [activator, single point] | –
N#CC1(c2ccccc2)CCN(S(=O)(=O)c2ccc(OC(F)(F)F)cc2)CC1 | inconclusive: 16.4 µM [inhibitor, partial curve, poor fit] | –
COc1ccc(C(=O)N/N=C/C(=O)c2ccccc2)cc1 | inconclusive: 18.3 µM [activator, partial curve] | –
CC(C)CN(Cc1c(O)ccc2c(=O)c(-c3ccccc3)coc12)CC(C)C | inconclusive: 10.3 µM [inhibitor, partial curve, poor fit] | –
N#Cc1ccccc1OCC(=O)Nc1cccc(S(=O)(=O)N2CCCCCC2)c1 | active: 18.3 µM | –
Cc1cccc(C(=O)NC(=O)Nc2c(C)cc(C)nc2C)c1 | inconclusive: 29.1 µM [activator, single point] | –
CCCSc1nc2sc3c(c2c(=O)n1CC)CC(C)(C)OC3 | inconclusive: 23.1 µM [inhibitor, partial curve] | –
COC(=O)C1C(=O)C2=C(CC1C)NC(C)=C(C(=O)OC1CCCCC1)C2c1ccc(N(C)C)cc1 (configuration not stated) | inconclusive: 29.1 µM [inhibitor, single point] | –
CSc1nc2ccc(NC(=O)C3=NN(c4ccccc4)C(=O)CC3)cc2s1 | inactive | –
COc1ccc(CN2CCNC(=O)C2CC(=O)N(C)Cc2nonc2C)c(F)c1 (configuration not stated) | inactive | –
O=C(Nc1ccc(O)c2c(=O)cc(-c3cccc(Cl)c3)oc12)c1ccccc1Cl | inactive | –
O=S(=O)(c1ccc(F)cc1)N1CCN(CC(O)COc2ccccc2F)CC1 (configuration not stated) | inconclusive: 18.3 µM [inhibitor, single point] | –
C=CCN=C(NC#N)SCCc1ccccc1 | inconclusive: 23.1 µM [activator, single point] | –
Cc1ccc(CNC(=O)c2cc3c(-c4ccc(Cl)cc4)nn(C)c3s2)o1 | active: 16.4 µM | –

A draw from above in order of formula weight, largest number first:
SMILES | Potency | activity change, negative = inhibition
Cc1ccc(CNC(=O)c2cc3c(-c4ccc(Cl)cc4)nn(C)c3s2)o1 | active: 16.4 µM | –
O=C(NCc1ccc2c(c1)OCO2)c1n[nH]c(=O)c2ccccc12 | inconclusive: 23.1 µM [activator, single point] | –
C=CCN=C(NC#N)SCCc1ccccc1 | inconclusive: 23.1 µM [activator, single point] | –

Following part

SMILES | Potency | activity change, negative = inhibition
COc1cccc(C(=O)NNS(=O)(=O)c2ccc(F)cc2)c1 | inconclusive: 0.58 µM [inhibitor, partial curve, poor fit] | –
CCCCc1cc(=O)oc2c(C)c(OCC(=O)NCC3CCC(C(=O)O)CC3)ccc12 (configuration not stated) | inconclusive: 0.411 µM [activator, partial curve, poor fit] | –
Nc1ncnc2c1ncn2CCc1ccccc1 | inconclusive: 2.91 µM [activator, full curve, poor fit] | –
c1ccc(CCNc2nc(-c3ccccn3)cs2)cc1 | inconclusive: 4.11 µM [activator, single point] | –
CCCCOC(=O)Nc1ccc(C(=O)OCCC)cc1 | inconclusive: 23.1 µM [activator, single point] | –
C=CCc1ccccc1OCC(=O)N/N=C/c1ccc(OC(C)=O)cc1OC(C)=O | inconclusive: 20.6 µM [inhibitor, partial curve, poor fit] | –
O=C(NCCN1CCOCC1)c1ccc(Cl)c(S(=O)(=O)N2CCCCCC2)c1 | inconclusive: 35.5 µM [inhibitor, single point] | –
COc1ccc(C2/C=C\CN(C(=O)CC(C)(C)C)CC(=O)N2Cc2ccc(F)cc2)cc1 (configuration not stated) | inconclusive: 14.6 µM [inhibitor, partial curve] | –
COc1ccc(-n2nnnc2SCC(=O)Nc2nc3c(s2)CCCC3)cc1 | inconclusive: 11.2 µM [inhibitor, partial curve, poor fit] | –
CCS(=O)(=O)N1Cc2ccccc2CC1C(=O)NCCc1c[nH]c2ccccc12 (configuration not stated) | inactive | –
C(=N/N1CCN(c2ccccc2)CC1)/c1ccncc1 | inactive | –
CCN(CC)S(=O)(=O)c1cccc(-c2nnc(SCc3nnc(-c4cccs4)o3)n2N)c1 | active: 20.6 µM | –
O=C(Cc1cccc2ccccc12)Nc1nc(-c2cccc([N+](=O)[O-])c2)cs1 | inconclusive: 20.6 µM [inhibitor, single point] | –
CCOc1ccc(C2C3=C(CCCC3=O)Nc3ccc4ncccc4c32)cc1 (configuration not stated) | inconclusive: 16.4 µM [activator, partial curve] | –
CCN(CC)CCCn1c2c(c(SCC(=O)N3CCc4ccccc43)nc1=O)CCC2 | inactive | –
Cc1ccc2[nH]c(=O)c3cc(C(=O)N(CCCOC(C)C)Cc4ccco4)sc3c2c1 | inconclusive: 23.1 µM [inhibitor, single point] | –
C=CCNC(=O)c1ccccc1NC(=O)C1CC(=O)N(C(C)C)C1 (configuration not stated) | – | inconclusive: 20.8% [activator]
C=CCN(c1ccc(C(=O)OC)cc1)S(=O)(=O)c1ccccc1 | inconclusive: 29.1 µM [activator, single point] | –
COc1cnc(-c2ccccc2)[nH]c1=O | inactive | –
COc1ccc(N2CCN(C(=O)CCCn3c(=O)[nH]c4cc(Cl)ccc4c3=O)CC2)cc1 | inconclusive: 14.6 µM [inhibitor, partial curve, poor fit] | –
CCOC(=O)CSc1nc2ccc(N3CCOCC3)cc2c(=O)n1Cc1ccc2c(c1)OCO2 | inconclusive: 22.4 µM [inhibitor, partial curve, poor fit] | –
CN1CCN(c2ccc(C(CC(N)=O)NC(=O)Cc3cccc4ccccc34)cc2[N+](=O)[O-])CC1 (configuration not stated) | inactive | –
COCC(C)n1c(SCc2nc(N)nc(Nc3ccccc3C)n2)nc2ccccc2c1=O (configuration not stated) | inconclusive: 25.9 µM [inhibitor, single point] | –

SMILES | Potency | activity change, negative = inhibition
COc1ccc(-n2nc(C(=O)NCC(=O)NC3CCCC(C)C3C)c3ccccc3c2=O)cc1 (configuration not stated) | inconclusive: 29.1 µM [inhibitor, single point] | –
COc1cccc(NC(=O)CSc2ccc(-c3sc(C)nc3C)nn2)c1 | active: 20.6 µM | –
CCOC(=O)c1ccc(NC(=O)CN(Cc2ccc(Cl)cc2)S(C)(=O)=O)cc1 | inactive | –
Cc1cc(C)c2[nH]c(=O)c(CN(CC3CCCO3)S(=O)(=O)c3ccc4c(c3)OCCO4)cc2c1 (configuration not stated) | inconclusive: 35.5 µM [inhibitor, single point] | –
O=C(N/N=C/c1ccc(N2CCOCC2)c([N+](=O)[O-])c1)c1ccc(F)cc1 | inconclusive: 23.1 µM [inhibitor, single point] | –
COc1cccc(C(=O)N2CCN(C(=O)C3CC3)CC2)c1 | inactive | –
COC(=O)c1ccc(C(NC(=O)c2cccnc2)NC(=O)c2cccnc2)cc1 | inconclusive: 18.3 µM [activator, single point] | –
O=C(CSc1nnc(SCc2ccccc2)s1)N/N=C/c1ccc(C(=O)O)cc1 | inactive | –
CCc1cc(=O)oc2cc(OCC(=O)NCCN3CCOCC3)c(Cl)cc12 | inactive | –
Cn1c(CCc2ccccc2)nnc1SCC(=O)N1CCCC1 | inconclusive: 10.3 µM [activator, partial curve, poor fit] | –
Cc1ccc(-n2nnc3c(=O)n(CC(N)=O)cnc32)cc1 | inactive | –
Cc1cc(Br)cc2c(C(=O)NCC3CCCO3)cc(-c3cccs3)nc12 (configuration not stated) | inconclusive: 20.6 µM [activator, partial curve] | –
CCN(CC)S(=O)(=O)c1ccc(OC)c(NC(=O)c2cn(CC)c3nc(C)ccc3c2=O)c1 | inactive | –
Cc1ccc(C(=O)Cc2cc3ccccc3oc2=O)c(C)c1 | inconclusive: 5.8 µM [activator, partial curve] | –
Cc1cccc(N2CC(C(=O)Nc3nc4ccc(S(C)(=O)=O)cc4s3)CC2=O)c1C (configuration not stated) | inconclusive: 29.1 µM [activator, single point] | –
CCOC(=O)N1CCC(Nc2cc(C)nc3c(-c4ccccc4OC)c(C)nn23)CC1 | inconclusive: 29.1 µM [inhibitor, single point] | –
CCN=C1S/C(=C\c2cn(CC(=O)NCCOC)c3ccccc23)C(=O)N1CC | inconclusive: 23.1 µM [inhibitor, single point] | –
Oc1ccc(/C=N/NC(=S)Nc2cccnc2)c(O)c1O | active: 14.6 µM | –
CCOC(=O)c1cc2c(N)c(C(=O)c3cc(C#N)c(SC)nc3C)sc2nc1C | inactive | –
COc1ccccc1N1CCN(S(=O)(=O)c2cn(C)nc2C)CC1 | inactive | –
O=C(Nc1cc2c3c(c1)CC(=O)N3CCC2)c1ccccc1Br | inconclusive: 5.17 µM [activator, single point] | –

18 entries from above, as tab-separated lines:
SMILES	Potency	activity change, negative = inhibition
COc1ccc(-n2nc(C(=O)NCC(=O)NC3CCCC(C)C3C)c3ccccc3c2=O)cc1 (configuration not stated)	inconclusive: 29.1 µM [inhibitor, single point]	–
COc1cccc(NC(=O)CSc2ccc(-c3sc(C)nc3C)nn2)c1	active: 20.6 µM	–
CCOC(=O)c1ccc(NC(=O)CN(Cc2ccc(Cl)cc2)S(C)(=O)=O)cc1	inactive	–
Cc1cc(C)c2[nH]c(=O)c(CN(CC3CCCO3)S(=O)(=O)c3ccc4c(c3)OCCO4)cc2c1 (configuration not stated)	inconclusive: 35.5 µM [inhibitor, single point]	–
O=C(N/N=C/c1ccc(N2CCOCC2)c([N+](=O)[O-])c1)c1ccc(F)cc1	inconclusive: 23.1 µM [inhibitor, single point]	–
COC(=O)c1ccc(C(NC(=O)c2cccnc2)NC(=O)c2cccnc2)cc1	inconclusive: 18.3 µM [activator, single point]	–
O=C(CSc1nnc(SCc2ccccc2)s1)N/N=C/c1ccc(C(=O)O)cc1	inactive	–
CCc1cc(=O)oc2cc(OCC(=O)NCCN3CCOCC3)c(Cl)cc12	inactive	–
Cn1c(CCc2ccccc2)nnc1SCC(=O)N1CCCC1	inconclusive: 10.3 µM [activator, partial curve, poor fit]	–
Cc1ccc(-n2nnc3c(=O)n(CC(N)=O)cnc32)cc1	inactive	–
Cc1cc(Br)cc2c(C(=O)NCC3CCCO3)cc(-c3cccs3)nc12 (configuration not stated)	inconclusive: 20.6 µM [activator, partial curve]	–
CCN(CC)S(=O)(=O)c1ccc(OC)c(NC(=O)c2cn(CC)c3nc(C)ccc3c2=O)c1	inactive	–
Cc1ccc(C(=O)Cc2cc3ccccc3oc2=O)c(C)c1	inconclusive: 5.8 µM [activator, partial curve]	–
Cc1cccc(N2CC(C(=O)Nc3nc4ccc(S(C)(=O)=O)cc4s3)CC2=O)c1C (configuration not stated)	inconclusive: 29.1 µM [activator, single point]	–
CCOC(=O)N1CCC(Nc2cc(C)nc3c(-c4ccccc4OC)c(C)nn23)CC1	inconclusive: 29.1 µM [inhibitor, single point]	–
CCOC(=O)c1cc2c(N)c(C(=O)c3cc(C#N)c(SC)nc3C)sc2nc1C	inactive	–
COc1ccccc1N1CCN(S(=O)(=O)c2cn(C)nc2C)CC1	inactive	–
O=C(Nc1cc2c3c(c1)CC(=O)N3CCC2)c1ccccc1Br	inconclusive: 5.17 µM [activator, single point]	–
